The assay has as its target T1, carboxyl terminus of EphB3 (UniProt P54753).
T1 sequence (looked up): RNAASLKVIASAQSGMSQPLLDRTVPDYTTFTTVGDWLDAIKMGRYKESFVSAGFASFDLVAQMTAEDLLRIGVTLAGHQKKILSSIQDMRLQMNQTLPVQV
The experiment in a line: yeast two hybrid screen, EphB3 carboxyl terminus as bait.

No constants are given. Whether binding was seen depends on the method and setting. Some entries that bind do so weakly or less than the wild type.

B1: novel protein containing ring finger domaine (R1P4) (protein)
chain: MGTTSDEMVSVEQTSSSSLNPLCFECGQQHWTRENHLYNYQNEVDDDLVCHICLQPLLQPLDTPCGHTFCYKCLRNFLQEKDFCPLDRKRLHFKLCKKSSILVHKLLDKLLVLCPFSSVCKDVMQRCDLEAHLKNRCPGASHRRVALERRKTSRTQAEIENENGPTLLDPAGTLSPEADCLGTGAVPVERHLTSASLSTWSEEPGLDNPAFEESAGADTTQQPLSLPEGEITTIEIHRSNPYIQLGISIVGGNETPLINIVIQEVYRDGVIARDGRLLAGDQILQVNNYNISNVSHNYARAVLSQPCNTLHLTVLRERRFGNRAHNHSDSNSPREEIFQVALHKRDSGEQLGIKLVRRTDEPGVFILDLLEGGLAAQDGRLSSNDRVLAINGHDLKYGTPELAAQIIQASGERVNLTIARPGKPQPGNTIREAGNHSSSSQHHTPPPYYSRPSSHKDLTQCVTCQEKHITVKKEPHESLGMTVAGGRGSKSGELPIFVTSVPPHGCLARDGRIKRGDVLLNINGIDLTNLSHSEAVAMLKASAASPAVALKALEVQIVEEATQNAEEQPSTFSENEYDASWSPSWVMWLGLPSTLHSCHDVVLRRSYLGSWGFSIVGGYEENHTNQPFFIKTIVLGTPAYYDGRLKCGDMIVAVNGLSTVGMSHSALVPMLKEQRNKVTLTVICWPGSLV
On to B1, for which the binding result is “binds”.

The values above are taken from patent publication US20060252034A1.
